Test results as given in patent US20030165887A1 (BURNHAM INSTITUTE, published 2003).
Results are given in words; binding and its absence hold for the method and conditions named. Binding seen in cells or lysates may run through a third protein. Some results given as binding are weak or reduced against the parent protein; the word gives no strength.

The chains behind the UniProt entries cited, without tags or fusion partners. Where a name states a change or a piece, a line headed by the entry shows the natural chain unless it says otherwise.
UniProt P55211: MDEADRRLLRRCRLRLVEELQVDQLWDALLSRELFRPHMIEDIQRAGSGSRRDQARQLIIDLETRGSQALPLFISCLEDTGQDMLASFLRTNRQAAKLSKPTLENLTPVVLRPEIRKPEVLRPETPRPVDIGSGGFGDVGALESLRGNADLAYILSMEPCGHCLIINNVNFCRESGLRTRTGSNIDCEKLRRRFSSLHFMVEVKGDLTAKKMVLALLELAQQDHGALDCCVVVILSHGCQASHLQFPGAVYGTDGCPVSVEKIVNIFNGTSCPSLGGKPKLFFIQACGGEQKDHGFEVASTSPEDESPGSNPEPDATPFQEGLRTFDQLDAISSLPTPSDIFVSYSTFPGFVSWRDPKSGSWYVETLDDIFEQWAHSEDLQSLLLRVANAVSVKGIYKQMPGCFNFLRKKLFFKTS
UniProt Q9Y2G2: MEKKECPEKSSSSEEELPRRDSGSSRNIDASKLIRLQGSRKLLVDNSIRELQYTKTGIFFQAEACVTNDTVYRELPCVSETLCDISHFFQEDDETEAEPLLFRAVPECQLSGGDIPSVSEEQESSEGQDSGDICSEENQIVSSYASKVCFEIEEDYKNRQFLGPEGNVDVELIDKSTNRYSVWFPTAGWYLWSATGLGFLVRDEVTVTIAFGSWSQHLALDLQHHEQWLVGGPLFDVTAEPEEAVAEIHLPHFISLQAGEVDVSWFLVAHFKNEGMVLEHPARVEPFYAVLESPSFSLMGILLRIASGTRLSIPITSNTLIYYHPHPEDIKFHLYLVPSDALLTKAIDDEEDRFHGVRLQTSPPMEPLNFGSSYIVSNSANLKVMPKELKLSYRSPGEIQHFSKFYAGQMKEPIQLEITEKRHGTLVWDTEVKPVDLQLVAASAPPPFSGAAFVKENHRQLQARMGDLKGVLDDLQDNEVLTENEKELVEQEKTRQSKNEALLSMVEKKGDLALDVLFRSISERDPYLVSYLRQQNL

Experiments:
[1] = molecular target: pro-caspase-9 inactive mutant (Cys287/Ala) (Homo sapiens (Human)) (UniProt P55211); experiment: co-immunoprecipitation, transfected cells, SDS-PAGE/immunoblot
[2] = molecular target: TUCAN (Tumor Up-regulated CARD-containing Antagonist of Caspase Nine), full-length (Homo sapiens (Human)) (UniProt Q9Y2G2); experiment: co-immunoprecipitation with HA- and Myc-tagged proteins
[3] = molecular target: TUCAN CARD-only fragment (residues 345-431) (Homo sapiens (Human)) (UniProt Q9Y2G2); experiment: as above
[4] = molecular target: TUCAN (Tumor Up-regulated CARD-containing Antagonist of Caspase Nine), full-length (Homo sapiens (Human)) (UniProt Q9Y2G2); experiment: co-immunoprecipitation (legend of FIG. 8)
[5] = molecular target: pro-caspase-9 inactive mutant (Cys287/Ala) (Homo sapiens (Human)) (UniProt P55211); experiment: co-immunoprecipitation (legend of FIG. 8)
[6] = molecular target: pro-caspase-9 inactive mutant (Cys287/Ala) (Homo sapiens (Human)) (UniProt P55211); experiment: co-immunoprecipitation with anti-Flag or anti-Myc from transfected HEK293T lysates, SDS-PAGE/immunoblot
[7] = molecular target: TUCAN (Tumor Up-regulated CARD-containing Antagonist of Caspase Nine), full-length (Homo sapiens (Human)) (UniProt Q9Y2G2); experiment: interaction tests with a panel of CARD-containing proteins (co-immunoprecipitation)
[8] = molecular target: pro-caspase-9 inactive mutant (Cys287/Ala) (Homo sapiens (Human)) (UniProt P55211); experiment: as above

Measured: binding

TUCAN CARD-only fragment (residues 345-431) (from UniProt Q9Y2G2 451-537)
binds: [1]

B1: TUCAN (Tumor Up-regulated CARD-containing Antagonist of Caspase Nine), full-length (other)
chain: MMRQRQSHYCSVLFLSVNYLGGTFPGDICSEENQIVSSYASKVCFEIEEDYKNRQFLGPEGNVDVELIDKSTNRYSVWFPTAGWYLWSATGLGFLVRDEVTVTIAFGSWSQHLALDLQHHEQWLVGGPLFDVTAEPEEAVAEIHLPHFISLQGEVDVSWFLVAHFKNEGMVLEHPARVEPFYAVLESPSFSLMGILLRIASGTRLSIPITSNTLIYYHPHPEDIKFHLYLVPSDALLTKAIDDEEDRFHGVRLQTSPPMEPLNFGSSYIVSNSANLKVMPKELKLSYRSPGEIQHFSKFYAGQMKEPIQLEITEKRHGTLVWDTEVKPVDLQLVAASAPPPFSGAAFVKENHRQLQARMGDLKGVLDDLQDNEVLTENEKELVEQEKTRQSKNEALLSMVEKKGDLALDVLFRSISERDPYLVSYLRQQNL
notes: Full-length TUCAN expressed by transient transfection in HEK293T cells; also called full-length TUCAN; CARD-X
binds: all assays above
